This is an account of results in ChEMBL document CHEMBL1122246, “Analgesic narcotic antagonists. 15. Potent narcotic agonist 7 beta-(arylalkyl)-4,5 alpha-epoxymorphinans” (1983).

By ED50 is commonly meant the dose at which the effect has come halfway, by size or by number of responders. Low readings indicate greater potency, high ones weaker potency.

The assay concerns Mus musculus. Kind of assay: Narcotic agonist activity using acetic acid induced writhing in the mouse upon subcutaneous administration. Format: functional. To be noted: sc. In short, it runs like this: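 Mouse acetic acid writhing test with subcutaneous dosing. Salt forms were given in distilled water; free bases were dissolved by adding 1 N HCl and then diluted.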

The compound `CN1CC[C@]23c4c5ccc(O)c4O[C@H]2[C@@H](O)C=C[C@H]3[C@H]1C5` [MORPHINE] returned an ED50 of 2.1 µmol/kg.
